Experimental findings from article PMC10605051 are described below.

Amino acid sequences for entries named in this document (tags omitted).
UniProt Q6R327: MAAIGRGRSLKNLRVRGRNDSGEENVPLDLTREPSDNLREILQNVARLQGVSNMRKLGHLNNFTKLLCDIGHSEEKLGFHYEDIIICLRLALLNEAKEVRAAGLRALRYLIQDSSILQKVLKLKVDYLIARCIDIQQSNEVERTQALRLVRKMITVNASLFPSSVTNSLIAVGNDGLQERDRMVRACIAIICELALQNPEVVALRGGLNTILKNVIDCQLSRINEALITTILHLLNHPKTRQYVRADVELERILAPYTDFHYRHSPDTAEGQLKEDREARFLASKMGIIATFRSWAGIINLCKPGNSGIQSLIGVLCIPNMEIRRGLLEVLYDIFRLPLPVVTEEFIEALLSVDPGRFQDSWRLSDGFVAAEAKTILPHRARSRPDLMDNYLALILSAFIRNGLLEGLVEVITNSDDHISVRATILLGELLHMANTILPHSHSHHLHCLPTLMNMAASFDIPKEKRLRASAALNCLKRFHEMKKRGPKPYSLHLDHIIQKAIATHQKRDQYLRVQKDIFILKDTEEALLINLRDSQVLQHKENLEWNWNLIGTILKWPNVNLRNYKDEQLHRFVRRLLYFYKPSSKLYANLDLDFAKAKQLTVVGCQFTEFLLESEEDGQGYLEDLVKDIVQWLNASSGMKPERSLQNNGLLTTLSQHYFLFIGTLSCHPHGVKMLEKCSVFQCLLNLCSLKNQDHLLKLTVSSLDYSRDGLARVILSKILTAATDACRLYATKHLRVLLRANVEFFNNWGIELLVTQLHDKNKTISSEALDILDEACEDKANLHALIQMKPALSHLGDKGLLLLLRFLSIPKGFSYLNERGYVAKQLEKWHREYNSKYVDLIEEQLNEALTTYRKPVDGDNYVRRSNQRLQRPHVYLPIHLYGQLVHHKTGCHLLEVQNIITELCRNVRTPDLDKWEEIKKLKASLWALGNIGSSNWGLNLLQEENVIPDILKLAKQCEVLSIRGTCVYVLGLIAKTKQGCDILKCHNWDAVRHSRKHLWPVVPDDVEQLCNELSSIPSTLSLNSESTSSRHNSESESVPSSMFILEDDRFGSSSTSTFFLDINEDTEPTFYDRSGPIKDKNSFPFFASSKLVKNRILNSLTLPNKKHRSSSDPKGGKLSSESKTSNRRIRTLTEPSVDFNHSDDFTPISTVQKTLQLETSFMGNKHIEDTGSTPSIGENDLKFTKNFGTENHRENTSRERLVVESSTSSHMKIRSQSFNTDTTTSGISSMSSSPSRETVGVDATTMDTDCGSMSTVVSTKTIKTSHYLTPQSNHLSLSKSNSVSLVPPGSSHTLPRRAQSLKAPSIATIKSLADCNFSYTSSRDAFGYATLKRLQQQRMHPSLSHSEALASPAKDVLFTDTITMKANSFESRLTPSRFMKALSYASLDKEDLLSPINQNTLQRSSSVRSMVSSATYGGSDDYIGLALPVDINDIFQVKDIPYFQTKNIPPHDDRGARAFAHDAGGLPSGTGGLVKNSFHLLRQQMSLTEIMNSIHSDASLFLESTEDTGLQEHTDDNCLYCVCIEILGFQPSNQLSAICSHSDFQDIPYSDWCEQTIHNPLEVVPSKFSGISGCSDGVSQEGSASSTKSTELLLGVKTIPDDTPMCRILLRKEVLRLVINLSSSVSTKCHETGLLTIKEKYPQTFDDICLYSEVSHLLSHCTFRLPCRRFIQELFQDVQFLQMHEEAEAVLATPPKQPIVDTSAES
UniProt Q8N122: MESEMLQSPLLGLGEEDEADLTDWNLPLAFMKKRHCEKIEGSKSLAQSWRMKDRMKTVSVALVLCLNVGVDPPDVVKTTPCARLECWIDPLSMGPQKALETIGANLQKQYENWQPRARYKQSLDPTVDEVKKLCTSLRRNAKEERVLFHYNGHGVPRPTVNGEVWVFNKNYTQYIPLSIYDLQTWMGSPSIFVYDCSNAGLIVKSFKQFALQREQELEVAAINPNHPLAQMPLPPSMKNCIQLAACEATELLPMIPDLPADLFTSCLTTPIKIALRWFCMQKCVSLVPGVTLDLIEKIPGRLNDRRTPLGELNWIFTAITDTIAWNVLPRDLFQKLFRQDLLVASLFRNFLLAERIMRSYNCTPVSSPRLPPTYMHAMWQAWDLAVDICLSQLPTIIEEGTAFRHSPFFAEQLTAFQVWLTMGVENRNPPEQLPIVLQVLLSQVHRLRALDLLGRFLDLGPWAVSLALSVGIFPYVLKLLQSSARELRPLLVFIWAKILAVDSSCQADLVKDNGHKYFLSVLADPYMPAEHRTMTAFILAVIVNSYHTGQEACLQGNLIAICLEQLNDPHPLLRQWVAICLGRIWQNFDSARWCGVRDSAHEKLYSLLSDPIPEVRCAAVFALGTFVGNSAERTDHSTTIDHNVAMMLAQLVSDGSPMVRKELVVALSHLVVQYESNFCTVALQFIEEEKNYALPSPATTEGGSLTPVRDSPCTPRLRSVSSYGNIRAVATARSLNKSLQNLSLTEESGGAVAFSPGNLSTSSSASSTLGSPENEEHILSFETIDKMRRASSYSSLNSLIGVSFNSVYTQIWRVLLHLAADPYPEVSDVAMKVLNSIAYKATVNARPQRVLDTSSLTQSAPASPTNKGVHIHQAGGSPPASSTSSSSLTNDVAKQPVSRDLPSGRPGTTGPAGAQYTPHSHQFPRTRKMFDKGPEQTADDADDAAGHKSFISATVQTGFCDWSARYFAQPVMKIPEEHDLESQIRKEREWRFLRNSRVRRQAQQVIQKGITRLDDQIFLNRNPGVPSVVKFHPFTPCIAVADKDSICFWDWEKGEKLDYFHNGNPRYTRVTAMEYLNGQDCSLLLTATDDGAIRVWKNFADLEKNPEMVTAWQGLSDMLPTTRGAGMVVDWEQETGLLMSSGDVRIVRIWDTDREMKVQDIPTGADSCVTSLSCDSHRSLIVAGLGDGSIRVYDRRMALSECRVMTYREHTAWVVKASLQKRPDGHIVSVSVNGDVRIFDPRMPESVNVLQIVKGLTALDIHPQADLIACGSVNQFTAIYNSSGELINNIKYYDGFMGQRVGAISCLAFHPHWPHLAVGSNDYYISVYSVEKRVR
UniProt Q01650: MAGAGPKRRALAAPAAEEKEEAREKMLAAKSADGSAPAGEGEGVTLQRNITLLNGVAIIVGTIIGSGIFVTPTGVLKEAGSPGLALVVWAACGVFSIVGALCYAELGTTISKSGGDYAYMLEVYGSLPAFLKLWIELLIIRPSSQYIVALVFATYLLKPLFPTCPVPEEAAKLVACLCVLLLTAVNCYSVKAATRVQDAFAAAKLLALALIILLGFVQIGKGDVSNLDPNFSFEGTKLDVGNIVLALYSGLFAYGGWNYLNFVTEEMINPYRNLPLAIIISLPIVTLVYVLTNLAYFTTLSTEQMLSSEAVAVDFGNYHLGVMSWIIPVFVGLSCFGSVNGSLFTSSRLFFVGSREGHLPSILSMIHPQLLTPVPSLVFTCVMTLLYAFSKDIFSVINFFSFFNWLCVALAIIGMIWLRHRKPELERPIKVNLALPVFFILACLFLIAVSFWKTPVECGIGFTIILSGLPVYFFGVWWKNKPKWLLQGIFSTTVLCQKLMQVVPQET

Assay [1] addresses Rictor (rapamycin-insensitive companion of mTOR) (human (endogenous in HeLa)) (UniProt Q6R327). As to the kind of experiment: co-IP; HeLa HA-LAT1 cell line, with or without 1 µM PMA for 6 h; 0.3% CHAPS lysis buffer; lysates immunoprecipitated with anti-Raptor or anti-Rictor antibody and protein G agarose, 4 °C; immunoblot.
Assay [2] concerns the target Raptor (human (endogenous in HeLa)) (UniProt Q8N122). The assay is described as above.

Results are given in words; binding and its absence hold for the method and conditions named. In cells and extracts the contact can be indirect. Some entries that bind do so weakly or less than the wild type.

As for “HA-tagged L-type amino acid transporter 1 (LAT1), wild type (from UniProt Q01650 1-507)”, the values for the binding entry in assay [1] and in assay [2] were “binds” and “no binding”, respectively.
